# Patent US20110275701
# Tested on: thrombin
# Test: activity assay
# Conditions: functional anticoagulation in vivo, not direct binding; ACT per subject at 6.0 mg/kg/hr infusion after 2 mg/kg bolus, about 3x baseline; protein details: endogenous plasma thrombin in healthy volunteers; single-stranded DNA
sequence,measurement,value
CGCCTAGGTTGGGTAGGGTGGTGGCG [NU172 (ARC2172)],functional effect of the aptamer,active
